Reference: PMC3603897

System: STAT1-containing aberrant complex (T. gondii + IFNγ) (Mus musculus (BMDC))
Assay: EMSA with supershift
Conditions: T. gondii RH then IFNγ, aberrant complex increases over time, peak at 22 h; EMSA: LightShift binding buffer, 200 fmol probe, 1 ug poly(I)-poly(C), 2.5% glycerol, 50 mM KCl, 1 mM DTT, 1 mM EDTA, 20 min; protein in an extract; label: 5' biotin on both strands

“CATTTCGGGGAAATCGATC (double strand) [Irf-1 promoter GAS probe]”: binds.

For at least one entry, the source does not settle the construct or the ends of the probe. At least one result comes from cells or an extract, where the contact may be indirect.
